One substance from article PMC12520528 can be followed below.

Chains of the proteins cited; added tags and fusions are not shown. Residues count along the entry.
UniProt Q03405, residues 23-305: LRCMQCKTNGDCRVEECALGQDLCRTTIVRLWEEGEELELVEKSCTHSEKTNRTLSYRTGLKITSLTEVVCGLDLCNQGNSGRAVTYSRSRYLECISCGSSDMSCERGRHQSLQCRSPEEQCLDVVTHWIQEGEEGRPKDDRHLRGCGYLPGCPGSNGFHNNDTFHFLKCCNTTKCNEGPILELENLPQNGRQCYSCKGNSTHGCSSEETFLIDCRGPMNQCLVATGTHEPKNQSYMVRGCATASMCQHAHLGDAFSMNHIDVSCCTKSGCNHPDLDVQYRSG
UniProt P35579: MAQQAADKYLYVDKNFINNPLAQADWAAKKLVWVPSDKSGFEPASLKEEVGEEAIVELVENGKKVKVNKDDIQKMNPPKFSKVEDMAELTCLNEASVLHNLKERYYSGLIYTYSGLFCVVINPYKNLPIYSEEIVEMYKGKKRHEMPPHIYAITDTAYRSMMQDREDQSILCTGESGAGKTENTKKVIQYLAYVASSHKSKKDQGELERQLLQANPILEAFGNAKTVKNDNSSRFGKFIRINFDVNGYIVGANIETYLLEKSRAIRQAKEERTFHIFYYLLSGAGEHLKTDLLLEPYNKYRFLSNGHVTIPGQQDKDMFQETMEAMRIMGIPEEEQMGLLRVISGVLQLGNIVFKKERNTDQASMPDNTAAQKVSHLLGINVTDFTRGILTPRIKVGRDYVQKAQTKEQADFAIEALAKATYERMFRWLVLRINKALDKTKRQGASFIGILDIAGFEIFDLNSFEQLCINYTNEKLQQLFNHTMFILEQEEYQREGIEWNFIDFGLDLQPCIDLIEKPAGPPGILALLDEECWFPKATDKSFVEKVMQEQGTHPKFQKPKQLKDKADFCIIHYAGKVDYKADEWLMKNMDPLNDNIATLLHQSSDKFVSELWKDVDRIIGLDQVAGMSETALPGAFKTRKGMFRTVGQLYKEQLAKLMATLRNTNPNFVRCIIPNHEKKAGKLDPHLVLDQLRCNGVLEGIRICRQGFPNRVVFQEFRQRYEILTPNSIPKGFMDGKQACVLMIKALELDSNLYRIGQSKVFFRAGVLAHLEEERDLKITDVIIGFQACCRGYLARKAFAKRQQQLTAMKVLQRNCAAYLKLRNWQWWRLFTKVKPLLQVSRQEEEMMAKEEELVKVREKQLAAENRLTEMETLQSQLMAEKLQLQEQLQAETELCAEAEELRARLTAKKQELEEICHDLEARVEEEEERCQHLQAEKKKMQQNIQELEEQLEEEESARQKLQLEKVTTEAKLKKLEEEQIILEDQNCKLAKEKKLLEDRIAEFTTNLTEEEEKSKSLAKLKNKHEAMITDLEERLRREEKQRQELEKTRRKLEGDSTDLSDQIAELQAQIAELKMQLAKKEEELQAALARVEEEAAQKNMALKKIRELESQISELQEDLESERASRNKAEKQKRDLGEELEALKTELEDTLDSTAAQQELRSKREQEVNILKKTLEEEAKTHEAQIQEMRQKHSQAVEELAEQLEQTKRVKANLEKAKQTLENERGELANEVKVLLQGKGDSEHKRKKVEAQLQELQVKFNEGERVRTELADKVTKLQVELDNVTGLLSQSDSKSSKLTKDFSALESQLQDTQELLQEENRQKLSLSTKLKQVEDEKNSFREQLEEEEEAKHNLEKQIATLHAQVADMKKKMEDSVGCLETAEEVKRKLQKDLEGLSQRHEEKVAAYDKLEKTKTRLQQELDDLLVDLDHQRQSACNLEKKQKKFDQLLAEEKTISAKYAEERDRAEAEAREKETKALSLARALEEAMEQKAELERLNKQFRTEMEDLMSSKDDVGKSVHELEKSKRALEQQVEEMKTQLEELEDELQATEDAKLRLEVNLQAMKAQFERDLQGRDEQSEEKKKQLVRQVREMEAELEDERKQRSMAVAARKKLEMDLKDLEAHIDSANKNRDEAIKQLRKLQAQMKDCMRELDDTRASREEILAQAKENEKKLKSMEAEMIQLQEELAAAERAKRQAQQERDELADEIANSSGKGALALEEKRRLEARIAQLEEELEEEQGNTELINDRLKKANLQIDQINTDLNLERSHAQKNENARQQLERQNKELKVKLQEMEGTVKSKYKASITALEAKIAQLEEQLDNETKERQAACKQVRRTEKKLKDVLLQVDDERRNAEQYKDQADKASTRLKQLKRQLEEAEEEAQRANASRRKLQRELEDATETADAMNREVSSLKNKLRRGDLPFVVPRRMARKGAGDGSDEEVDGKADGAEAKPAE

No constants are given. Whether binding was seen depends on the method and setting. Binding seen in cells or lysates may run through a third protein. Some results given as binding are weak or reduced against the parent protein; the word gives no strength.

The assay addresses urokinase-type plasminogen activator receptor (PLAUR), endogenous in neutrophils (UniProt Q03405). Description: co-IP; coimmunoprecipitation in neutrophils; which protein was precipitated is not told in the main text.

With “myosin heavy chain 9 (MYH9) (from UniProt P35579 1-1960)”, the binding result was “binds”.
